Source: article PMC13321232
These are yes or no findings as the source states them, for the method shown. In cells and extracts the contact can be indirect. Some entries that bind do so weakly or less than the wild type. Sequences can lack the tags named with a protein.

Experiments:
[1] = target: T1, PXL2-flag (Arabidopsis thaliana) (UniProt Q9M0G7); experiment: co-IP; FLAG- and HA-tagged proteins cotransfected into Arabidopsis protoplasts from root cell suspension cultures; 10 µM MG132 for 6 h; lysis in 50 mM Tris-HCl pH 7.6, 150 mM NaCl, 1% NP-40, 0.1% SDS; anti-FLAG (anti-DYKDDDDK) or anti-HA magnetic beads, 4 °C; western blot
T1 sequence: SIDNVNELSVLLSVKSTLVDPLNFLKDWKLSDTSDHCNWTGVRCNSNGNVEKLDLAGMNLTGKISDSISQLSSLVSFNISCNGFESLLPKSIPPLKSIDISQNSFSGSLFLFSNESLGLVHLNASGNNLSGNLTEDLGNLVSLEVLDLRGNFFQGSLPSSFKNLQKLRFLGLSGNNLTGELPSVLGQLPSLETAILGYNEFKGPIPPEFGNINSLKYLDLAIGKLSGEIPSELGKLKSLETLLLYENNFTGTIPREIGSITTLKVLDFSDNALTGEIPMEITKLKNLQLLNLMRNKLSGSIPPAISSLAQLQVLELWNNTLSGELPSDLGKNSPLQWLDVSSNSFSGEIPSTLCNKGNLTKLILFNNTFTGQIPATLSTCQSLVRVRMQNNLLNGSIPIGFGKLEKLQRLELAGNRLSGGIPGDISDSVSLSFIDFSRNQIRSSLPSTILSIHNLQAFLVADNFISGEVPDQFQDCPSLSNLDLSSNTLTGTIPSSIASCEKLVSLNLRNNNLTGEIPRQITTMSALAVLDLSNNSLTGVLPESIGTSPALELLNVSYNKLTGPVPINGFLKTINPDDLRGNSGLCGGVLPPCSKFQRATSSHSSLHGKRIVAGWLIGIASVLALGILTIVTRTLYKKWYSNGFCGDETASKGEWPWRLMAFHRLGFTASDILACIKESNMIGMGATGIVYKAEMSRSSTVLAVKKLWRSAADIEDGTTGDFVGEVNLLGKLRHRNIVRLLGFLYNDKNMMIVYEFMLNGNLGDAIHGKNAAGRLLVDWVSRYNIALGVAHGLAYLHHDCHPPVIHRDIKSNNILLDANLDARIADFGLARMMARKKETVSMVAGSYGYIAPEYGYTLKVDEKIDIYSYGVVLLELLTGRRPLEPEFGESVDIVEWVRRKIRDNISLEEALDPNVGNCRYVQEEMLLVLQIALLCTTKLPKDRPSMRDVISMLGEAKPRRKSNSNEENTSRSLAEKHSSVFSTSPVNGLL

[2] = target: T2, PXL1-flag (Arabidopsis thaliana) (UniProt Q9FRS6); experiment: as above
T2 sequence: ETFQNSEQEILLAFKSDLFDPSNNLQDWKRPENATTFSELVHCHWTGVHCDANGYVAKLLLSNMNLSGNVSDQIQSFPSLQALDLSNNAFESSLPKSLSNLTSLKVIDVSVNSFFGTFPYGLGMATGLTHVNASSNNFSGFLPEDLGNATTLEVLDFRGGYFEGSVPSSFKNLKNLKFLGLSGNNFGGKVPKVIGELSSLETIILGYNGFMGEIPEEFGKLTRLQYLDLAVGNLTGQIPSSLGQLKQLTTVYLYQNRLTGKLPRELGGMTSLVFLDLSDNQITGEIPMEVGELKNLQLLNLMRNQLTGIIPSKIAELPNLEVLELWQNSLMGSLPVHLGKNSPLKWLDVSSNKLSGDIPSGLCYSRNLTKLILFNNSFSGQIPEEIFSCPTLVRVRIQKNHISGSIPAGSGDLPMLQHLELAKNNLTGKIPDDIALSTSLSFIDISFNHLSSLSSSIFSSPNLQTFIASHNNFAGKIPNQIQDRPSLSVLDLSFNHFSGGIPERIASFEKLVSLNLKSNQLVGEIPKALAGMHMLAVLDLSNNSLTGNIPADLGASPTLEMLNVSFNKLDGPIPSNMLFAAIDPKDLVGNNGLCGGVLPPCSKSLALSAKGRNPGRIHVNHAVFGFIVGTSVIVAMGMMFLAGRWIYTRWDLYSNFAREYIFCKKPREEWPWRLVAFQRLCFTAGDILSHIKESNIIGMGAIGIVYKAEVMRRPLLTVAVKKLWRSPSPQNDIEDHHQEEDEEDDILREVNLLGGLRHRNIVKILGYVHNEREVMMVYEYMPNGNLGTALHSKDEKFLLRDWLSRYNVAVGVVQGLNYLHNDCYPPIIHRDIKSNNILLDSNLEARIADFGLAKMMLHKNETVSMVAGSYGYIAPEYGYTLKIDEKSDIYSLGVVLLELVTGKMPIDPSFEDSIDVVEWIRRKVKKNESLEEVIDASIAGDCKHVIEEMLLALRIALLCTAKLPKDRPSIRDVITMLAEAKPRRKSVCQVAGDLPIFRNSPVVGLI

binding [1]: binds
binding [2]: binds
B1: ERL1-HA (receptor, UniProt C0LGW6 26-966)
chain: MNNEGKALMAIKGSFSNLVNMLLDWDDVHNSDLCSWRGVFCDNVSYSVVSLNLSSLNLGGEISPAIGDLRNLQSIDLQGNKLAGQIPDEIGNCASLVYLDLSENLLYGDIPFSISKLKQLETLNLKNNQLTGPVPATLTQIPNLKRLDLAGNHLTGEISRLLYWNEVLQYLGLRGNMLTGTLSSDMCQLTGLWYFDVRGNNLTGTIPESIGNCTSFQILDISYNQITGEIPYNIGFLQVATLSLQGNRLTGRIPEVIGLMQALAVLDLSDNELVGPIPPILGNLSFTGKLYLHGNMLTGPIPSELGNMSRLSYLQLNDNKLVGTIPPELGKLEQLFELNLANNRLVGPIPSNISSCAALNQFNVHGNLLSGSIPLAFRNLGSLTYLNLSSNNFKGKIPVELGHIINLDKLDLSGNNFSGSIPLTLGDLEHLLILNLSRNHLSGQLPAEFGNLRSIQMIDVSFNLLSGVIPTELGQLQNLNSLILNNNKLHGKIPDQLTNCFTLVNLNVSFNNLSGIVPPMKNFSRFAPASFVGNPYLCGNWVGSICGPLPKSRVFSRGALICIVLGVITLLCMIFLAVYKSMQQKKILQGSSKQAEGLTKLVILHMDMAIHTFDDIMRVTENLNEKFIIGYGASSTVYKCALKSSRPIAIKRLYNQYPHNLREFETELETIGSIRHRNIVSLHGYALSPTGNLLFYDYMENGSLWDLLHGSLKKVKLDWETRLKIAVGAAQGLAYLHHDCTPRIIHRDIKSSNILLDENFEAHLSDFGIAKSIPASKTHASTYVLGTIGYIDPEYARTSRINEKSDIYSFGIVLLELLTGKKAVDNEANLHQLILSKADDNTVMEAVDPEVTVTCMDLGHIRKTFQLALLCTKRNPLERPTMLEVSRVLLSLVPSLQVAKKLPSLDHSTKKLQQENEVRNPDAEASQWFVQFREVISKSSI
